Assay results reported in PubChem BioAssay AID540276 (National Center for Advancing Translational Sciences (NCATS), 2011).
Values joined by “and” are separate entries in the source; they are usually repeats but may differ in a detail not shown here. Equal entries are not always repeated. Hit rate of the full screen: of about 300,000 compounds, about 5,400 (1.8%) were called active. Inconclusive results, whose numbers are uncertain, are shown with a selection of clear calls. The call rests on the fitted dose curve; tested in HEK293 cells. Potencies of inconclusive entries are doubtful fits and often do not repeat.
On the % scale 0 is the no-effect control and ±100 the full control effect; potency means the concentration at half of the fitted maximal effect.

Test: qHTS for inhibitors of binding or entry into cells for Marburg Virus
Conditions: Marburg virus pseudotyped entry inhibition, cell reporter; activity change, negative = inhibition: at 37.8 µM (top of the series) unless noted
In the case of `CCc1ccc(CNCCc2ccc(F)cc2)cc1`, the Potency is reported as inconclusive: 2.24 µM [inhibitor, partial curve, poor fit]. In the case of `CCCCNC(=O)c1nn(-c2ccccc2OC)c(=O)c2ccccc12`, the Potency is reported as inconclusive: 0.562 µM [inhibitor, full curve, poor fit]. With `O=[N+]([O-])c1ccc(NN=Cc2ccc(O)cc2O)nc1` the Potency was inconclusive: 4.47 µM [inhibitor, full curve, poor fit]. In the case of `O=C(NCCS(=O)(=O)N1CCC2(CC1)OCCO2)c1ccc(F)cc1`, the Potency is reported as inconclusive: 10 µM [activator, partial curve, poor fit]. For `O=C(Cc1cccs1)NCc1ccc2c(c1)OCO2`, the “activity change, negative = inhibition” value was inactive: 8.57%. In the case of `COC(=O)/C(=C1\Oc2ccc(C(C)(C)C)cc2S1)C(F)(F)F`, the Potency is reported as inconclusive: 3.16 µM [activator, partial curve, poor fit]. In the case of `CN=C(N)NCCCC(N)C(=O)O` (stereo not given), the Potency is reported as inconclusive: 35.5 µM [inhibitor, single point]. For `CC[C@H](C)C(=O)O[C@H]1C[C@@H](C)C=C2C=C[C@H](C)[C@H](CC[C@@H]3C[C@@H](O)CC(=O)O3)[C@H]21`, the Potency was “inactive”. With `O=C(NCc1ccc2c(c1)OCO2)c1cccnc1` the Potency was inconclusive: 2.24 µM [activator, single point]. For `Cc1cc(C)nc(NS(=O)(=O)c2ccc(NC(=O)c3ccco3)cc2)n1`, the Potency was inconclusive: 12.6 µM [inhibitor, partial curve, poor fit]. In the case of `Cc1ccc(C)c(NC2=C(c3ccc(C(F)(F)F)cc3)C(=O)c3ccccc32)c1`, the “activity change, negative = inhibition” value is reported as inactive: -21.5% [at 46.1 µM]. With `O=C(Nc1ccccc1Cl)c1ccc(COc2ccc3c(c2)CCC3)cc1` the “activity change, negative = inhibition” value was inactive: -12.5%. For `COCc1cc(C)nc(SCC(=O)Nc2cc(C(F)(F)F)ccc2N2CCOCC2)c1C#N`, the Potency was inconclusive: 6.31 µM [inhibitor, full curve, poor fit]. With `COc1cccc(/C=C/C(=O)OCC(=O)NCCC2=CCCCC2)c1` the Potency was inconclusive: 35.5 µM [inhibitor, single point]. In the case of `CCC1SC(C)C/C(=N/NC(N)=O)C1C` (stereo not given), the Potency is reported as inconclusive: 1.26 µM [inhibitor, single point]. For `COC1=C[C@H](C(=O)NCc2ccc(Br)cc2)[C@H](C)[C@@H](c2ccccc2)CC1=O`, the “activity change, negative = inhibition” value was inactive: -6.3% [at 14.2 µM]. In the case of `c1ccc(Cc2cc(-c3ccccc3)on2)cc1`, the Potency is reported as inconclusive: 0.92 µM [activator, full curve, poor fit]. In the case of `COc1cc(NC(=O)Cn2c(=O)n(CC3CCCO3)c(=O)c3cc(OC)c(OC)cc32)cc(OC)c1` (stereo not given), the Potency is reported as “inactive”. In the case of `Cc1nn(Cc2c(F)c(F)c(F)c(F)c2F)c(C)c1NC(=O)c1ccc(COc2cc(Cl)ccc2Cl)cc1`, the “activity change, negative = inhibition” value is reported as inactive: -5.75%. For `CC(=O)NC(Nc1nc2c(s1)CCCC2)(C(F)(F)F)C(F)(F)F`, the Potency was inconclusive: 35.5 µM [activator, single point]. For `CC(=O)OC1COC(n2ccc3ccccc32)C(OC(C)=O)C1OC(C)=O` (stereo not given), the Potency was inconclusive: 0.231 µM [inhibitor, full curve, poor fit]. In the case of `Nc1nc(SCC(=O)Nc2ccc(Br)cc2Br)n[nH]1`, the Potency is reported as inconclusive: 6.31 µM [inhibitor, single point]. With `CCCNC(=O)CN(c1cccc(F)c1)S(C)(=O)=O` the Potency was inconclusive: 3.16 µM [activator, single point]. In the case of `O=C(Cn1ncc2c3ccccc3n(Cc3cccc(Cl)c3)c2c1=O)N1CCCCC1`, the Potency is reported as inconclusive: 39.8 µM [inhibitor, single point]. With `COc1ccc(CN2C(=O)c3ccccc3C2C(=O)NC2CCCCCC2)c(OC)c1` (stereo not given) the Potency was inconclusive: 35.5 µM [inhibitor, single point]. With `O=C(Nc1ccc(S(=O)(=O)N2CCCC2)cc1)N1c2ccccc2Sc2ccccc21` the Potency was inconclusive: 29.1 µM [inhibitor, single point]. For `C/C(=N/NC(=O)CNC(=O)c1ccccc1F)c1ccc2c(c1)CCCC2`, the Potency was inconclusive: 3.98 µM [inhibitor, single point]. For `COc1ccc(OC)c(-c2nc(CN3CCCCC3c3cccnc3)c(C)o2)c1` (stereo not given), the Potency was inconclusive: 4.47 µM [inhibitor, full curve, poor fit]. In the case of `O=C(N/N=C\c1cc([N+](=O)[O-])ccc1N1CCCC1)c1ccccn1`, the “activity change, negative = inhibition” value is reported as inactive: -18.9%. In the case of `Cc1c(/C=N/NC(=O)C2(O)c3ccccc3-c3ccccc32)cnn1C`, the “activity change, negative = inhibition” value is reported as inactive: -0.613%. In the case of `CCNC(=S)N/N=C/c1ccc(OCC(=O)Nc2ccc(OC)cc2)c(OC)c1`, the Potency is reported as inconclusive: 12.6 µM [inhibitor, partial curve, poor fit]. In the case of `COc1cccc2c(=O)cn[nH]c12`, the Potency is reported as inconclusive: 0.398 µM [activator, full curve, poor fit]. With `CC(=O)Oc1ccc(C(=O)NCCc2ccccc2)cc1` the Potency was inconclusive: 1.41 µM [inhibitor, partial curve, poor fit]. In the case of `Cc1ccc(-n2c(=O)[nH]c3sc4c(c3c2=O)CCNC4)cc1C`, the Potency is reported as inconclusive: 3.55 µM [activator, single point]. For `O=S1(=O)[C@H]2C[C@H](CO)O[C@@]2(CO)CN1Cc1ccc(-c2cccc(Cl)c2)cc1`, the “activity change, negative = inhibition” value was inactive: 1.73%. With `COc1ccc(C2=NN(c3nc(-c4ccccc4)c(CC(=O)O)s3)C(c3ccco3)C2)cc1` (stereo not given) the Potency was “inactive and inconclusive: 22.4 µM [inhibitor, single point]”. With `Cc1ccc(NC(c2cccc(Cl)c2)c2nnc(-c3ccccc3)o2)cc1F` (stereo not given) the Potency was inconclusive: 7.94 µM [inhibitor, partial curve, poor fit]. In the case of `COc1ccc(C(=O)N2CCC(C(=O)Nc3ccccc3OC)CC2)cc1`, the Potency is reported as inconclusive: 1.46 µM [activator, full curve, poor fit]. For `COC(=O)C1=C(C(=O)OC)SC2(S1)C(C(=O)OC)=C(C(=O)OC)SC1=C2c2cc(C)ccc2NC1(C)C`, the “activity change, negative = inhibition” value was inactive: 1.28%. For `Cc1cccc(-n2c(SCc3ccc([N+](=O)[O-])cc3)nnc2-c2c[nH]c3ccccc23)c1`, the Potency was inconclusive: 16.4 µM [inhibitor, partial curve, poor fit]. For `Cc1[nH]n(-c2ccccc2)c(=O)c1N=Nc1cccc(C(=O)O)c1`, the Potency was inconclusive: 5.01 µM [inhibitor, full curve]. For `O=c1cc(CNc2cc(Cl)ccc2Cl)nc2sccn12`, the Potency was inconclusive: 1.78 µM [inhibitor, single point]. In the case of `COc1ccc(-c2noc(C3CCCN(C(=O)Nc4ccccc4F)C3)n2)cc1` (stereo not given), the Potency is reported as inconclusive: 3.16 µM [activator, single point]. For `COc1ccc(CCN2CC(C(=O)NCCc3ccc(C(F)(F)F)cc3)CCC2=O)cc1` (stereo not given), the “activity change, negative = inhibition” value was inactive: 5.64% [at 46.1 µM]. With `Cc1ccc2c(c1)sc1nc(=O)n(-c3cccc(Cl)c3)c(=O)n12` the Potency was inconclusive: 2.31 µM [activator, partial curve] and inconclusive: 562 nM [activator, full curve, poor fit]. With `Cc1nn(C2CCOC(C)(C)C2)c2c1C(c1ccc(OC(C)C)cc1)SCC(=O)N2` (stereo not given) the Potency was inconclusive: 6.51 µM [inhibitor, single point]. For `CN1CCOC(=O)/C1=N/Nc1cc(Cl)ccc1Cl`, the Potency was inconclusive: 10 µM [inhibitor, partial curve, poor fit]. In the case of `Cc1ccc(S(=O)(=O)N(C)c2ccc(C(=O)N3CCN(Cc4ccc5c(c4)OCO5)CC3)cc2)cc1`, the Potency is reported as inconclusive: 11.6 µM [inhibitor, partial curve]. For `O=C(C=Cc1cccnc1)c1ccccc1`, the Potency was active: 12.6 µM. For `N#Cc1cnc2sc3ccccc3n2c1=N`, the “activity change, negative = inhibition” value was inactive: 17.1%. With `NC(=O)C1CCCN(CC(=O)Nc2ccccc2C(=O)NC2CC2)C1` (stereo not given) the Potency was inconclusive: 3.55 µM [inhibitor, full curve, poor fit]. For `CC(C)Cc1c(O)nc(SCC(=O)N2CCCCCC2)[nH]c1=O`, the Potency was inconclusive: 35.5 µM [inhibitor, single point]. With `COc1ccccc1NC(=O)C1=C(C)Nc2nc(SCc3ccccc3Cl)nn2C1c1cccnc1` (stereo not given) the “activity change, negative = inhibition” value was inactive: 6.79% [at 46.1 µM]. For `COc1ccccc1/C=N/Nc1cc(C)nc2ccc(C)cc12`, the “activity change, negative = inhibition” value was inactive: -3.07% [at 46.1 µM]. With `O=C(CN(Cc1ccccc1Cl)C(=O)Cn1nnc(-c2cccs2)n1)NCC1CCCO1` (stereo not given) the Potency was “inactive”. With `O=C(CCNC(=O)c1ccc(Br)cc1)Nc1ccccc1N1CCCCC1` the Potency was inconclusive: 12.6 µM [inhibitor, single point]. In the case of `COc1ccc(-c2csc(NC(=O)CSCC(=O)Nc3cc(C)on3)n2)c(OC)c1`, the “activity change, negative = inhibition” value is reported as inactive: 2.51%. In the case of `O=C(CCN1CCOCC1)c1ccccc1`, the Potency is reported as inconclusive: 10.3 µM [inhibitor, partial curve]. With `CCOC(=O)c1cccc(NC(=O)/C=C/c2ccc([N+](=O)[O-])cc2)c1` the Potency was inconclusive: 20 µM [inhibitor, single point]. With `CC/C(=N\NC(N)=O)c1c(O)[nH]c(=O)[nH]c1=O` the Potency was inconclusive: 3.16 µM [inhibitor, partial curve, poor fit]. For `CN(C)S(=O)(=O)c1ccc(NC(=O)c2ccccn2)cc1`, the Potency was inconclusive: 2.24 µM [inhibitor, single point]. With `CCN(CC)c1ccc(NC(=O)CN2CCN(c3nc(C)cc(C)n3)CC2)cc1` the Potency was inconclusive: 35.5 µM [inhibitor, single point]. With `COc1ccc(C2CCCN2C(=S)Nc2cccc(C)c2C)cc1OC` (stereo not given) the “activity change, negative = inhibition” value was inactive: -19.6% [at 46.1 µM]. In the case of `COc1ccc(Br)cc1CC1C(=O)Nc2ccccc21` (stereo not given), the Potency is reported as inconclusive: 22.4 µM [inhibitor, single point]. For `COC(=O)c1ccc(NC(=O)C(=O)N2CCN(C(=S)Nc3ccccc3OC)CC2)cc1`, the Potency was inconclusive: 1.26 µM [inhibitor, single point].
